Results reported in US20230135877A1 (Arizona Board of Regents on Behalf of the University of …, priority 2020, published 2023).

Test: peptide made by a vendor
Conditions: whole synthesis

For KEQCVEMYTD [10-mer], the “purity (crude or final not stated)” value was 98.8%.
For PAGRGKEQCVEMYTDGQWND, the “purity (crude or final not stated)” value was 98.0%.

End groups of sequences in plain letters are not given here.
